Experimental data as given in paper PMC12191127.
No constants are given. Whether binding was seen depends on the method and setting. Binding can be weak; no strength is given.

T1: SMC-5 (wild-type) (C. elegans) (UniProt Q18237)
T1 sequence: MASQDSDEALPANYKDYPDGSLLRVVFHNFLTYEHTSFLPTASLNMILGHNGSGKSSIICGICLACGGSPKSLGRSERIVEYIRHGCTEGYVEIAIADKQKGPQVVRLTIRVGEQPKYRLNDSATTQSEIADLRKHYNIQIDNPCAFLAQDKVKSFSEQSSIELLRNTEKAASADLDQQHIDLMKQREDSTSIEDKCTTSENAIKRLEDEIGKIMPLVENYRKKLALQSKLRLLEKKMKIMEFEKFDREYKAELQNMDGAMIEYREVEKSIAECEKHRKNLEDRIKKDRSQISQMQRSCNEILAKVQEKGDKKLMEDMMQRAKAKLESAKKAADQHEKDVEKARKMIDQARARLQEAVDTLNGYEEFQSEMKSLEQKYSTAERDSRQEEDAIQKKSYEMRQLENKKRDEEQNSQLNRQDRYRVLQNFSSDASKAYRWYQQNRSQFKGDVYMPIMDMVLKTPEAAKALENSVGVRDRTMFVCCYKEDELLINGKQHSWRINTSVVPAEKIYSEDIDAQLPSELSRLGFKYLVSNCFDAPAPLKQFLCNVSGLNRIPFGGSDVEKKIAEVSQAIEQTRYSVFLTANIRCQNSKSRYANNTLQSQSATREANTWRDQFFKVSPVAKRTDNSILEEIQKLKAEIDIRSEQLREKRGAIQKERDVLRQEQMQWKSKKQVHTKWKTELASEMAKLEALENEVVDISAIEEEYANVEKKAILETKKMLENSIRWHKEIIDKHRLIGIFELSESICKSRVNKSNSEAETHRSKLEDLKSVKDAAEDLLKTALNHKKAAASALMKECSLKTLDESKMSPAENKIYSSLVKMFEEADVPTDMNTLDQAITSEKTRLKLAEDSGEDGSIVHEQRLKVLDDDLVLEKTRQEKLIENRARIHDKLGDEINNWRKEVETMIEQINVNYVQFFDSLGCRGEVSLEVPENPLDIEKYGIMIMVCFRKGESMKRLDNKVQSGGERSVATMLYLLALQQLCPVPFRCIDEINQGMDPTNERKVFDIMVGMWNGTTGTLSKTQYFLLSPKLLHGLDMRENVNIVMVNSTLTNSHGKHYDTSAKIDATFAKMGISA


What was measured:
[1] = target: T1, SMC-5 (wild-type) (C. elegans); test: two-hybrid; Y2HGold yeast; pGBKT7 bait and pGADT7 prey; both configurations (SMC-5 on Gal4 AD with NSE-4 on Gal4 BD, and the reciprocal); growth on SD-Trp-Leu-His + 3-AT, 2-3 days at 30 °C
[2] = target: NSE-4 (Non-SMC Element 4) (C. elegans) (UniProt Q9XTV3); test: as above

binding [1] | binding [2] | Molecule
binds |  | NSE-4 (Non-SMC Element 4) (from UniProt Q9XTV3)
 | binds | SMC-5 (wild-type) (protein, UniProt Q18237 1-1076) MASQDSDEALPANYKDYPDGSLLRVVFHNFLTYEHTSFLPTASLNMILGHNGSGKSSIICGICLACGGSPKSLGRSERIVEYIRHGCTEGYVEIAIADKQKGPQVVRLTIRVGEQPKYRLNDSATTQSEIADLRKHYNIQIDNPCAFLAQDKVKSFSEQSSIELLRNTEKAASADLDQQHIDLMKQREDSTSIEDKCTTSENAIKRLEDEIGKIMPLVENYRKKLALQSKLRLLEKKMKIMEFEKFDREYKAELQNMDGAMIEYREVEKSIAECEKHRKNLEDRIKKDRSQISQMQRSCNEILAKVQEKGDKKLMEDMMQRAKAKLESAKKAADQHEKDVEKARKMIDQARARLQEAVDTLNGYEEFQSEMKSLEQKYSTAERDSRQEEDAIQKKSYEMRQLENKKRDEEQNSQLNRQDRYRVLQNFSSDASKAYRWYQQNRSQFKGDVYMPIMDMVLKTPEAAKALENSVGVRDRTMFVCCYKEDELLINGKQHSWRINTSVVPAEKIYSEDIDAQLPSELSRLGFKYLVSNCFDAPAPLKQFLCNVSGLNRIPFGGSDVEKKIAEVSQAIEQTRYSVFLTANIRCQNSKSRYANNTLQSQSATREANTWRDQFFKVSPVAKRTDNSILEEIQKLKAEIDIRSEQLREKRGAIQKERDVLRQEQMQWKSKKQVHTKWKTELASEMAKLEALENEVVDISAIEEEYANVEKKAILETKKMLENSIRWHKEIIDKHRLIGIFELSESICKSRVNKSNSEAETHRSKLEDLKSVKDAAEDLLKTALNHKKAAASALMKECSLKTLDESKMSPAENKIYSSLVKMFEEADVPTDMNTLDQAITSEKTRLKLAEDSGEDGSIVHEQRLKVLDDDLVLEKTRQEKLIENRARIHDKLGDEINNWRKEVETMIEQINVNYVQFFDSLGCRGEVSLEVPENPLDIEKYGIMIMVCFRKGESMKRLDNKVQSGGERSVATMLYLLALQQLCPVPFRCIDEINQGMDPTNERKVFDIMVGMWNGTTGTLSKTQYFLLSPKLLHGLDMRENVNIVMVNSTLTNSHGKHYDTSAKIDATFAKMGISA
